Results on two molecules are retold here after patent EP4840921A1, “HOT MELT ADHESIVE, METHOD FOR PRODUCING SAME, AND COATING METHOD” (dated 2026).

Molecules are shown by their SMILES. Structures were worked out from names or drawings and are uncertain.

The data set can be described thus: Thermogravimetric (TG) measurement, 10% weight loss temperature. Conditions: temperature increased at 10°C/min. As for the experimental part:
Here, the 10% weight loss temperature in TG measurement means a temperature at a time point at which, in TG measurement when the temperature of the antibacterial agent having a paraben structure is increased at 10°C/min, the weight has decreased by 10% by weight relative to the weight before the temperature increase (that is, the weight of the antibacterial agent having a paraben structure has become 90% relative to the weight before the temperature increase). Hereinafter, in the present specification, the 10% weight loss temperature in TG measurement may be referred to as "T10".

`CCCCOC(=O)c1ccc(O)cc1`: the “T10 (10% weight loss temperature in TG measurement)” value is “T10: 193.4 °C”.

In the case of `CCCOC(=O)c1ccc(O)cc1`, the “T10 (10% weight loss temperature in TG measurement)” value was “T10: 185.1 °C”.
